Test results published in PubChem BioAssay AID720504 (National Center for Advancing Translational Sciences (NCATS), 2013).
Hit rate of the full screen: of about 360,000 compounds, about 10,000 (2.8%) were called active. The shares of active, inactive and inconclusive entries below differ from those in the screen. The call rests on the fitted dose curve; in most records, active means well fitted inhibition curve with a large enough effect; inconclusive means small, poorly fitted or top-dose-only effect; inactive means flat fitted curve, though single readings scatter. Potencies beside an inconclusive call are fits to weak or partial responses and may not hold up.

Amino acid sequences for entries named in this document (tags omitted).
UniProt P53350, whole entry, looked up: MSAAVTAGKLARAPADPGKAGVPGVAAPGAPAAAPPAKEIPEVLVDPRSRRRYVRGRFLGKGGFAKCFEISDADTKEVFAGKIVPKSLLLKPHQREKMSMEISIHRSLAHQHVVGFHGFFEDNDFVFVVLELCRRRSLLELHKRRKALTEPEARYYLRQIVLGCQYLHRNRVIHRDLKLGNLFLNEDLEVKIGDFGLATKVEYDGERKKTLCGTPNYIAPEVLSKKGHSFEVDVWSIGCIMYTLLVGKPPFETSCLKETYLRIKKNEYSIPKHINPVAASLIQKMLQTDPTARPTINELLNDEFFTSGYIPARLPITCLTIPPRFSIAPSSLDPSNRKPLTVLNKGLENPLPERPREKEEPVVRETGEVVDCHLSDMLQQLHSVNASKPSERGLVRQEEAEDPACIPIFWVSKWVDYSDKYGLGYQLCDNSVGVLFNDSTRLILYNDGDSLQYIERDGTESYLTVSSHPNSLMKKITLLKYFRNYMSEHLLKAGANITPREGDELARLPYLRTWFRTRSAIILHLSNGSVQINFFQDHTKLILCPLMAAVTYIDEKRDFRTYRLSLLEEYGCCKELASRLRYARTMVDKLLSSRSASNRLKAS

The compounds below were run against Serine/threonine-protein kinase PLK1 (Homo sapiens) (UniProt P53350) (assay: qHTS for Inhibitors of PLK1-PDB (polo-like kinase 1 - polo-box domain): Primary Screen). Conditions: Plk1 PBD binding of FITC phosphopeptide, fluorescence polarization.
Further: nearly all actives have a fitted effect of over 65% in size.
On the % scale 0 is the no-effect control and ±100 the full control effect; potency means the concentration at half of the fitted maximal effect.
Wherever max response, negative = inhibition is given: series mostly up to about 57 µM.

Structure (SMILES)	Potency	max response, negative = inhibition
CN(CCC(=O)c1ccccc1)CCC(=O)c1ccccc1	active: 26.7 µM	–
O=C(CSc1ccccn1)c1ccc2c(c1)OCO2	inconclusive: 29.9 µM [inhibitor, single point]	–
CSCC[C@H](NC(=O)N1CCn2c1nc1ccccc12)C(=O)NCc1ccco1	active: 26.7 µM	–
O=c1c2ccccc2ncn1Cc1ccc(Cl)cc1	–	inactive: -0.191%
Cc1cccc(C)c1NC(=O)CSCC(=O)c1ccc(O)c(O)c1	inconclusive: 26.7 µM [inhibitor, partial curve]	–
CCn1c(SCC(=O)O)nc2sc3c(c2c1=O)CCC3	inconclusive: 33.6 µM [inhibitor, single point]	–
O=C(O)CCCC(=O)Nc1ccc(N=Nc2ccccc2)cc1	–	inactive: -0.201%
COc1ccc(OCc2nnc3n2N=C(c2ccc(OC)cc2)CS3)cc1	inconclusive: 37.7 µM [inhibitor, single point]	–
OCCC1CN(Cc2cnc(-c3ccccc3)s2)CCN1C1CCCCC1 (stereo not drawn)	inconclusive: 37.7 µM [inhibitor, single point]	–
Nc1nc(CN2CCN(c3ccccc3F)CC2)nc(N2CCCc3ccccc32)n1	–	inactive: -6.15%
COc1ccc([C@H]2[C@H](C(=O)OC(C)(C)C)N3N=Cc4ccccc4C3C23C(=O)c2ccccc2C3=O)c(OC)c1 (stereo partly drawn)	–	inactive: -24.9%
COc1ccccc1CNC(=O)C1Cc2ccccc2C(=O)O1 (stereo not drawn)	inconclusive: 7.52 µM [inhibitor, partial curve]	–
O=C(N/N=C/c1cn(-c2cccs2)nc1-c1ccccc1)c1ccccc1Cl	–	inactive: -0.784%
O=C(NC(=S)Nc1ncccn1)c1ccc(F)cc1	–	inactive: -12.2%
Cc1ccccc1NC(=S)NCCSc1ccc(Cl)cc1	–	inactive: -6.58%
CCc1nn2c(=O)cc(COc3ccc(NC(=O)c4ccco4)cc3)nc2s1	active: 26.7 µM	–
COc1cc(Br)cc(/C=N/NC(=O)Cc2ccc(C(F)(F)F)cc2[N+](=O)[O-])c1O	inconclusive: 26.7 µM [inhibitor, partial curve]	–
CC(C)(C)OC(=O)[C@H](CCCCN)NC(=O)c1nc[nH]c1C(=O)N[C@@H](CCCCN)C(=O)OC(C)(C)C	inconclusive: 37.7 µM [inhibitor, single point]	–
COc1cc(C)nc(OCCNS(=O)(=O)c2cc(C)ccc2C)n1	–	inactive: 2.62%
O=C(CN1CCCC1c1ccc2c(c1)OCCO2)NC(=O)Nc1ccccc1F (stereo not drawn)	–	inactive: -7.12%
COC(=O)c1ccc(CNC(=O)c2ccc(OCC(=O)N3CCOCC3)c(OC)c2)cc1	–	inactive: -0.78%
Nc1cc(OC(=O)c2ccco2)nn1S(=O)(=O)c1ccc(F)cc1	inconclusive: 23.8 µM [inhibitor, partial curve]	–
COc1cc(/C=N\NC(=O)OC(C)(C)C)ccc1OC(=O)c1ccco1	inconclusive: 23.8 µM [inhibitor, partial curve]	–
O=C(O)CN1C(=O)/C(=C\c2cc(Br)ccc2OCc2ccc(Cl)cc2Cl)SC1=S	active: 11.9 µM	–
O=C(CSc1nnc(Cc2ccccc2)n1Cc1ccccc1)NCc1ccco1	–	inconclusive: -32.1% [inhibitor]

Part of the list above, with bars between the fields:
Structure (SMILES) | Potency | max response, negative = inhibition
CSCC[C@H](NC(=O)N1CCn2c1nc1ccccc12)C(=O)NCc1ccco1 | active: 26.7 µM | –
O=c1c2ccccc2ncn1Cc1ccc(Cl)cc1 | – | inactive: -0.191%
Cc1cccc(C)c1NC(=O)CSCC(=O)c1ccc(O)c(O)c1 | inconclusive: 26.7 µM [inhibitor, partial curve] | –

Later entries:

Structure (SMILES)	Potency	max response, negative = inhibition
Cc1cc(NC(=O)CCc2ccccc2)c([N+](=O)[O-])cc1C	inconclusive: 26.7 µM [inhibitor, single point]	–
O=[N+]([O-])c1ccc(NC(=S)NCCc2ccc(F)cc2)cc1	inconclusive: 26.7 µM [inhibitor, partial curve]	–
CS(=O)(=O)N1CCN(c2ccccc2NC(=O)CSc2ccc(Cl)cc2)CC1	–	inconclusive: -31.3% [inhibitor]
O=C1CCCC(O)=C1Sc1cc(Cl)c(Cl)cc1Cl	inconclusive: 21.2 µM [inhibitor, partial curve]	–
COc1cc(C(=O)Nc2scc(-c3ccc(Br)cc3)c2C(=O)O)cc(OC)c1OC	inconclusive: 29.9 µM [inhibitor, single point]	–
COc1ccc(OC)c(CNC(=O)CCC(=O)N2Cc3ccccc3Oc3ncccc32)c1	inconclusive: 21.2 µM [inhibitor, single point]	–
O=C(NNc1nc(-c2ccccc2)cs1)c1ccccc1	–	inconclusive: -37% [inhibitor]
CC1=CC(C)C(C[N+]2(C)CCCCC2)C(C)C1 (stereo not drawn)	inconclusive: 26.7 µM [inhibitor, single point]	–
CC(C(=O)N1CCCCC1)N(C)CC(=O)Nc1ccc(Cl)cc1 (stereo not drawn)	active: 11.9 µM	–
COc1ccc(C)cc1S(=O)(=O)N1CCCC(C(=O)N2CCN(c3ccccc3F)CC2)C1 (stereo not drawn)	–	inactive: -0.373%
CCn1c(SCC(=O)c2ccc(CNC(C)=O)o2)nnc1-c1cccs1	–	inactive: -27.5%
COc1ccccc1NS(=O)(=O)c1cc(NC(=O)Nc2ccccc2)ccc1N1CCCCC1	inconclusive: 11.9 µM [inhibitor, partial curve]	–
COc1ccc(S(=O)(=O)NCc2ccccn2)cc1NC(=O)c1ccccc1	–	inactive: -9.7%
O=[N+]([O-])c1ccc(C2=NN(CCO)C(=Nc3ccc(OC(F)(F)F)cc3)SC2)cc1	–	inactive: -18.7%
CC(=O)Nc1ccc(SCC(=O)NC(=O)c2ccc(Cl)cc2)cc1	inconclusive: 18.9 µM [inhibitor, partial curve]	–
Cc1ccc(N2C3=C(C(=O)CC(C)(C)C3)C(c3cn(C)nc3C)C3=C2CC(C)(C)CC3=O)cc1	active: 3.77 µM	–
[O-]/C(=C(\C(=S)Nc1ccc(SC(F)F)cc1)[n+]1cccc(CO)c1)c1ccc(Cl)s1	inconclusive: 26.7 µM [inhibitor, single point]	–
COc1ccc(OC)c(CCNC(=O)CCc2nnc3ccc(N4CCCCC4)nn23)c1	–	inactive: 1.77%
CCCC1C2CN(C(C)C)CC=C2C(C#N)=C(N)C1(C#N)C#N (stereo not drawn)	inconclusive: 26.7 µM [inhibitor, single point]	–
Cc1ccc(C)c(NC(=S)NCCN2CCOCC2)c1	inconclusive: 26.7 µM [inhibitor, partial curve]	–
CCOC(=O)C(C#N)C(c1cccnc1)c1c(C)[nH][nH]c1=O (stereo not drawn)	inconclusive: 26.7 µM [inhibitor, partial curve]	–
CSc1nsc(SCC(=O)Nc2ccc(O)c(C(=O)O)c2)n1	inconclusive: 15 µM [inhibitor, partial curve]	–
CCn1c(N2CCC(Cc3ccccc3)CC2)nc2c1c(=O)[nH]c(=O)n2C	active: 29.9 µM	–
COc1ccc(OCC2c3cc(OC)c(OC)cc3CCN2C(=O)C(C)C)cc1 (stereo not drawn)	active: 26.7 µM	–
CCCc1ccc2oc(C(=O)N(C)Cc3ccn[nH]3)c(C)c2c1	inconclusive: 21.2 µM [inhibitor, single point]	–

Structure (SMILES)	Potency	max response, negative = inhibition
S=c1nc2[nH]c3ccccc3c2n[nH]1	active: 3.77 µM	–
O=C1C=C(C2OC(CO)C(O)C2O)C(=O)N1 (stereo not drawn)	inconclusive: 26.7 µM [inhibitor, partial curve]	–
CCN(CC)c1ccc(/C=N/Nc2nn[nH]n2)cc1	–	inactive: -1.24%
COc1cc(C(=O)NCCc2ccc(F)cc2)c([N+](=O)[O-])cc1OC	active: 13.4 µM	–
C=CCSc1nc2ccsc2c(=O)n1-c1cccnc1	active: 26.7 µM	–
CCN(C(=O)c1cc2c(=O)[nH]c3ccc(C)cc3c2s1)c1ccc(F)cc1	inconclusive: 18.9 µM [inhibitor, partial curve]	–
Nc1nc(SCC(=O)c2ccc([N+](=O)[O-])cc2)n[nH]1	inconclusive: 23.8 µM [inhibitor, partial curve]	–
COc1ccc(CNC(=O)c2sc(=S)n(-c3ccc(OC)cc3)c2N)cc1	inconclusive: 8.44 µM [inhibitor, full curve]	–
Cc1nc(NC(=O)CSc2ccccc2N)sc1C	inconclusive: 37.7 µM [inhibitor, single point]	–
CCCCCOc1ccc(C2C(C(=O)c3ccc(C)o3)=C(O)C(=O)N2c2cc(C)on2)cc1 (stereo not drawn)	inconclusive: 29.9 µM [inhibitor, single point]	–
O=[N+]([O-])c1cc(S(=O)(=O)C(F)(F)F)ccc1Sc1nc2ccccc2[nH]1	inconclusive: 2.67 µM [inhibitor, full curve]	–
C[C@H]1CN([C@@H](C)CO)S(=O)(=O)c2ccc(Br)cc2O[C@H]1CN(C)C(=O)c1cccc(F)c1	–	inactive: -0.78%
O=C(CSc1nc2ccc(Cl)cc2[nH]1)NCCc1ccc(Cl)cc1	–	inactive: -8.36%
Cc1cccc(Cc2nnc(CCC(=O)NCc3ccncc3C)o2)c1	inconclusive: 29.9 µM [inhibitor, partial curve]	–
O=C(CN1CCCC1)Nc1c2c(nc3ccccc13)N(Cc1ccccc1)CC2	–	inactive: -9.21%
O=C(CSc1ccccn1)Nc1ccc(N2CCOCC2)cc1	inconclusive: 2.67 µM [inhibitor, full curve]	–
CCn1c(SCC(=O)Nc2ccc(C)cc2)nc2sc3c(c2c1=O)CCN(C)C3	inconclusive: 21.2 µM [inhibitor, single point]	–
Cc1ccccc1CNS(=O)(=O)c1c(C)[nH]c(C)c1C(=O)N1CCCCC1	active: 26.7 µM	–
CCN1c2ccccc2N(C)C1(C)c1ccccc1 (stereo not drawn)	active: 1.68 µM	–
O=C(NCc1ccc(Cl)cc1)C(=O)c1c[nH]c2ccccc12	–	inactive: -0.67%
COc1ccc(C(=O)CCN2CCCCCC2)cc1	active: 15.8 µM	–
NC(=O)c1ccc(-n2nnnc2SCC(=O)Nc2ccc(N3CCOCC3)c(Cl)c2)cc1	active: 23.8 µM	–
COc1ccc2ccccc2c1C1CC(=O)N2CN(C3CCCCC3)CSC2=C1C#N (stereo not drawn)	active: 13.4 µM	–
